Results: PubChem BioAssay AID493014 (National Center for Advancing Translational Sciences (NCATS), 2011)
Some of the results follow. These are further read-outs of the screen, such as a control signal, another cell line or another target. No call is given for them. Most of these compounds were active or inconclusive in the main read-out, so they are no random draw. Words in brackets tell the shape of the fitted curve; partial curves, single points and poor fits give uncertain potencies.

Assay: qHTS Assay to Find Inhibitors of Chronic Active B-Cell Receptor Signaling
Details: ABC-DLBCL IkBa-CBG/CBR reporter, luminescence ratio (green luciferase fused to IkBa over red control in TMD8 lymphoma cells), 4 h
In short: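 TMD8 ABC-DLBCL cells carrying doxycycline-inducible green luciferase fused to IkappaBalpha plus unfused red luciferase were exposed to compounds (up to 46 uM) for 4 hrs at 37C. Activity came from the overlap-corrected green/red luminescence ratio.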

[1] = measured here: CBR red luminescence, cell number
[2] = measured here: IkBa-CBG green luminescence

SMILES	AC50 [1]	AC50 [2]
COc1ccc(C(=O)NNC(=S)NC(=O)c2ccco2)cc1	11.2 µM [falling, partial curve, poor fit]	
COc1ccc(CCC(=O)N2CCCc3ccccc32)cc1	1.58 µM [rising, full curve, poor fit]	
O=C1C=CC(=O)N1c1ccc(N2CCCCC2)cc1	10 µM [falling, partial curve]	11.2 µM [rising, partial curve, poor fit]
CCOC(=O)NC1(C(F)(F)F)NC(=O)N(Cc2ccco2)C1=O (stereo unspecified)	29.1 µM [falling, single point]	
Cc1ccc(OCCC(=O)OCC(=O)N2CC(=O)Nc3ccccc32)cc1	4.61 µM [falling, full curve]	
COc1cccc(N/C=C(\C#N)c2ccc(OCCCF)cc2)c1	16.4 µM [falling, single point]	
CC(C)c1ccc(/C=N/Nc2ccc(C(=O)O)cc2)cc1	0.058 µM [falling, full curve]	
CCOC(=O)C1CCN(C(=O)COC(=O)c2nn(C)c(=O)c3ccccc23)CC1	11.6 µM [falling, partial curve, poor fit]	
Cc1[nH]n(-c2ccccc2)c(=O)c1-c1ccc(Cl)cc1	6.51 µM [falling, single point]	
CCOCC(=O)Nc1nc2ccc(OCC)cc2s1	13 µM [falling, single point]	
CC(C)NC(=O)c1cc(-c2ccc3c(c2)OCO3)on1	7.08 µM [falling, partial curve]	
Clc1ccccc1OCc1nc(-c2ccncc2)no1	18.4 µM [rising, partial curve, poor fit]	
Cc1ccc(-c2nnc(NC(=O)c3ccco3)o2)c(C)c1	3.66 µM [falling, full curve]	
Cc1nn(Cc2c(F)c(F)c(F)c(F)c2F)c(C)c1NC(=O)c1ccc(COc2ccccc2Cl)cc1	3.98 µM [falling, full curve, poor fit]	
CC1(C(=O)O)CCC(C(=O)Nc2ccc(OC(F)(F)Cl)cc2)C1(C)C (stereo unspecified)	35.5 µM [rising, partial curve, poor fit]	
CN(Cc1ccccc1F)c1nc(-c2cccnc2)nc2ccccc12	35.5 µM [falling, single point]	35.5 µM [rising, partial curve, poor fit]
Cc1cc(C)c(C#N)c(N2CCN(Cc3ccc4c(c3)OCO4)CC2)n1	0.794 µM [rising, full curve, poor fit]	
Cc1ccc(C)c(/C=C/C(=O)c2ccccc(=O)c2O)c1	18.4 µM [falling, single point]	23.1 µM [falling, partial curve, poor fit]
CCCCNc1c(-c2ccc(OC)c(SC(C)CC)c2)nc2ccc(C)cn12 (stereo unspecified)	29.1 µM [falling, single point]	
Nc1ccc2nn(-c3ccc(Cl)cc3)nc2c1	15.8 µM [falling, partial curve, poor fit]	
COc1ccc(-c2nc3ccccc3c(=O)o2)cc1OC	7.08 µM [falling, full curve]	

In a second layout: three of the compounds above
COc1ccc(CCC(=O)N2CCCc3ccccc32)cc1
  AC50 [1]: 1.58 µM [rising, full curve, poor fit]
O=C1C=CC(=O)N1c1ccc(N2CCCCC2)cc1
  AC50 [1]: 10 µM [falling, partial curve]; AC50 [2]: 11.2 µM [rising, partial curve, poor fit]
CCOC(=O)NC1(C(F)(F)F)NC(=O)N(Cc2ccco2)C1=O (stereo unspecified)
  AC50 [1]: 29.1 µM [falling, single point]

The list continues:

SMILES	AC50 [1]	AC50 [2]
CC(Nc1ccc(Br)cc1)C(=O)N/N=C/c1ccccc1OCc1ccccc1 (stereo unspecified)	32.6 µM [falling, single point]	
NNc1nc(-c2ccccc2)c2cc(Cl)ccc2n1	4.47 µM [falling, full curve]	5.01 µM [rising, partial curve, poor fit]
Cc1ccc2c(c1)NC(=O)[C@@]1(C)[C@@H](c3ccccc3)[C@H]3COc4ccccc4[C@@H]3N1C2=O	2.31 µM [falling, full curve]	2.06 µM [rising, full curve, poor fit]
O=c1c2c([nH]c3ccccc13)C(=C1CCCC1)CC2	2.24 µM [falling, full curve, poor fit]	
O=C(Cc1cccc2ccccc12)NCCc1ccccc1	1.26 µM [rising, partial curve, poor fit]	
CC(=O)c1ccc(NC(=O)Nc2cccc3ccccc23)cc1	0.251 µM [falling, full curve, poor fit]	
O=C(CSc1ncccn1)N/N=C/c1ccc(OC2CSC2)cc1	0.708 µM [falling, full curve, poor fit]	
Cc1nc(NC2=NCN(Cc3cccnc3)CN2)nc2c(C)cccc12	0.0184 µM [falling, full curve, poor fit]	
CN(C)c1ccc(/C=N/NC(=O)c2ccc(NC(=O)c3ccccc3)cc2)cc1	22.4 µM [falling, partial curve, poor fit]	
O=C(Nc1ccc(CN2CCCCC2)cc1)c1sc2ccccc2c1Cl	14.1 µM [falling, single point]	
Cc1nc2c(C)cccc2c2c1COC2	22.4 µM [rising, partial curve, poor fit]	
CCCn1c(N2CCN(C(=O)Nc3ccc(Cl)cc3)CC2)nc2ccccc21	3.98 µM [rising, partial curve, poor fit]	
CC(C1CC1)N(C(=O)NC1CCS(=O)(=O)C1)c1ccccc1 (stereo unspecified)	6.31 µM [falling, partial curve, poor fit]	
O=C(COc1ccc(-c2ccccc2)cc1)N1CCN(S(=O)(=O)Cc2ccccc2)CC1	29.1 µM [rising, single point]	13 µM [falling, partial curve]
COC(=O)c1c(C)[nH]c(-c2csc(N)n2)c1C	35.5 µM [rising, single point]	15.8 µM [falling, single point]
CCSc1nnc(NC(=O)c2ccccc2C)s1	14.1 µM [falling, partial curve, poor fit]	
COc1cc(C)c(CNc2cccc(C)c2)cc1C	1.46 µM [rising, full curve, poor fit]	
CCCC[C@@H](CN[C@H](C)CNC)NCC1CCC(C(C)(C)C)CC1 (stereo partly specified)	11.2 µM [falling, partial curve, poor fit]	
CCCc1cc(NC(=O)COC(=O)c2ccc(O)cc2O)n(-c2ccccc2)n1	4.11 µM [falling, single point]	
CC(C)(C)C1CCC(OC(=O)CN2CCOCC2)CC1 (stereo unspecified)	0.116 µM [falling, full curve, poor fit]	
COc1ccc(CNC(=O)Cn2nc([N+](=O)[O-])cc2C)cc1	0.316 µM [rising, full curve, poor fit]	

SMILES	AC50 [1]	AC50 [2]
O=S(=O)(NC1CCCC1)c1cc(F)ccc1F	22.4 µM [rising, partial curve, poor fit]	
O=C(N/N=C/c1ccc2cccc(OCc3ccccc3)c2n1)c1ccc(Br)cc1	7.08 µM [falling, partial curve]	
Cc1ccc(S(=O)(=O)N2CCCCC2)cc1NC(=O)CCN1C(=O)C2CC=CCC2C1=O (stereo unspecified)	29.1 µM [rising, single point]	
Cc1ccc(CNC(=O)Cn2nnc(C(=O)Nc3cccc(C)c3C)c2N)cc1	7.08 µM [rising, full curve, poor fit]	
CN(CCO)CCOCCOc1cccc2ccccc12	35.5 µM [falling, single point]	
CCC(C)[C@H](NC(=O)NC1CC1)C(=O)O (stereo partly specified)	35.5 µM [falling, single point]	
COc1ccccc1-c1nnc2n1N=C(C(C)(C)C)CS2	29.1 µM [rising, single point]	
Cc1cc2ncn(/N=C/c3ccc([N+](=O)[O-])s3)c2cc1C	3.26 µM [rising, partial curve]	
C=CCN(CC=C)C(=S)NC(=O)c1ccc(OC)cc1	6.31 µM [rising, partial curve]	11.2 µM [falling, partial curve]
COCCNC(=O)c1cc(-c2ccccc2C)n(CC2CC(c3cccc([N+](=O)[O-])c3)=NO2)n1 (stereo unspecified)	29.1 µM [falling, single point]	
COc1cccc(-c2nc(CS(=O)(=O)CC(=O)NCCCN3CC(C)CC(C)C3)c(C)o2)c1 (stereo unspecified)	25.1 µM [falling, single point]	
CC(C)c1ccc(C(=O)CSc2ncn[nH]2)cc1	28.2 µM [falling, single point]	
Clc1ccc(OCCSc2ncccn2)c(Br)c1	2.51 µM [rising, partial curve]	
Cc1cccc(NC(=S)NCCc2ccccn2)c1	12.6 µM [rising, partial curve, poor fit]	
Cc1ccc(-c2csc(NC(=O)CN3CC(C)OC(C)C3)n2)cc1 (stereo unspecified)	15.8 µM [falling, single point]	
C=CCN=C1S/C(=C\c2ccc(N(C)C)cc2)C(=O)N1CC=C	2 µM [rising, partial curve, poor fit]	
COc1ccc(C)cc1NC(=O)C(Sc1ccccc1)c1ccccc1 (stereo unspecified)	3.26 µM [falling, single point]	
Cc1cc(C)n(Cc2ccc(C(=O)O)o2)n1	1.26 µM [rising, full curve, poor fit]	
Cc1ccc2nc(SCc3cccc([N+](=O)[O-])c3)nc(C)c2c1	5.62 µM [rising, single point]	
CC(=O)Nc1cccc(NC(=O)Nc2ccc(F)cc2F)c1	1.78 µM [falling, full curve]	
Cn1c(-c2ccc(F)cc2)cnc1NCc1ccccc1F	20 µM [falling, single point]	
